Data as given in PMC4857404.
No constants are given. Whether binding was seen depends on the method and setting. In cells and extracts the contact can be indirect.

Sequences of proteins named here, by UniProt entry; tags and fusion partners are left off. A change or cut given only in a name is not applied to a line headed by its entry. A line that says so, or that is headed by a name, gives the form on record, which may keep a tag or linker. Residues count along the entry.
UniProt Q9NTX7, residues 92-168: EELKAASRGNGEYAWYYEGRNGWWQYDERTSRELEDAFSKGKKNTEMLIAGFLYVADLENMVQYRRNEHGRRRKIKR
GST-WWE^R164A mutant control (Q9NTX7, form named): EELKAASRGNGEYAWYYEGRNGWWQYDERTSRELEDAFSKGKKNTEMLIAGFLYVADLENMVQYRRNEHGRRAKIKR
UniProt O35625: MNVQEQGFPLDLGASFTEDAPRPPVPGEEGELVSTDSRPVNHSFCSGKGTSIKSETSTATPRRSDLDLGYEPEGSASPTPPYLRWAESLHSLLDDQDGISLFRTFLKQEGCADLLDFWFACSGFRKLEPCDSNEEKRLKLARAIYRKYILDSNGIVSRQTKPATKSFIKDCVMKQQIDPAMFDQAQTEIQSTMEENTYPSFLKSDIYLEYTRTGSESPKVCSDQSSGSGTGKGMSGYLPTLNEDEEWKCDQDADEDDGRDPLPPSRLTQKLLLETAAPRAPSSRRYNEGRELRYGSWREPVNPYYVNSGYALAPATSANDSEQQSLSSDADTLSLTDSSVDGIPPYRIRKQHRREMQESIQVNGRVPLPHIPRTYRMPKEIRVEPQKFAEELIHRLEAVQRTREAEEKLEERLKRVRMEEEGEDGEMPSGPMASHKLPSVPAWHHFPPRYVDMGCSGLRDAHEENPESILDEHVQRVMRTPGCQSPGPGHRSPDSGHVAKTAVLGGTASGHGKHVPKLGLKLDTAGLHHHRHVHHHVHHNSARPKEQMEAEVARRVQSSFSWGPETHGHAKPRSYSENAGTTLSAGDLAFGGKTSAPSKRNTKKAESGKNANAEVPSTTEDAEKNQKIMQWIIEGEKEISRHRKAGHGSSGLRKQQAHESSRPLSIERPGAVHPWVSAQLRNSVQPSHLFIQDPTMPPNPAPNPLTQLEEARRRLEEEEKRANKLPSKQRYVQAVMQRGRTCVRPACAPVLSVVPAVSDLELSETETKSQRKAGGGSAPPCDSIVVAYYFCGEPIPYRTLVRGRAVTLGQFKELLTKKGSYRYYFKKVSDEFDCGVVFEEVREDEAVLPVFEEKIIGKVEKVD

Columns and labels:
[1] = target: GST-WWE^R164A mutant control (UniProt Q9NTX7); test: pull-down; GST-WWE or GST-WWE^R164A beads incubated overnight at 4 °C with lysates of HEK293T cells (transfected with Flag-Axin1 or Flag-Axin1ΔTBD; or untransfected, Wnt3A 0.5 h), S2R+ cells (Wg conditioned medium 1 h; white dsRNA control) or Drosophila embryos (stages 4-5 and 9); lysis or RIPA buffer with 1 μM ADP-HPD, protease and phosphatase inhibitors; four washes (50 mM Tris-HCl pH 8.0, 150 mM NaCl, 1% NP-40); immunoblot; only the target purified
[2] = target: GST-WWE (Trp-Trp-Glu (WWE) domain of the RING-type E3 ubiquitin ligase RNF146/Iduna coupled to glutathione S-transferase) (UniProt Q9NTX7); test: as above

## Flag-mouse Axin1ΔTBD (from UniProt O35625)
[1]
  binding: no binding
[2]
  binding: no binding
